Measured values: US7943670B2, “Liquid formulations of ractopamine” (Eli Lilly and Company, priority 2004, dated 2011)
Some entries share one result that the patent states for a list of compounds.

Assay: Solubility of ractopamine (water, PG, PEG vehicle systems)
Assay type: physicochemical

Q: For `CC(CCc1ccc(O)cc1)NCC(O)c1ccc(O)cc1` (stereo not shown) [ractopamine], which solubility in water is on record?
A: 3-4 % by weight
